Assay results reported in publication PMC5587339.
No constants are given. Whether binding was seen depends on the method and setting. In cells and extracts the contact can be indirect. Some results given as binding are weak or reduced against the parent protein; the word gives no strength.

Chains of the proteins cited; added tags and fusions are not shown. Residues count along the entry.
UniProt P35385: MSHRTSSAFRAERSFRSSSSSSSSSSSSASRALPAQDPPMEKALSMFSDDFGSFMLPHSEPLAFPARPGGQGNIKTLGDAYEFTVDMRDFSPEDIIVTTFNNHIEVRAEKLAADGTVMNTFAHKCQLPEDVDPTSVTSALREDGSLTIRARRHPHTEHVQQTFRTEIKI
UniProt P15116, residues 160-906: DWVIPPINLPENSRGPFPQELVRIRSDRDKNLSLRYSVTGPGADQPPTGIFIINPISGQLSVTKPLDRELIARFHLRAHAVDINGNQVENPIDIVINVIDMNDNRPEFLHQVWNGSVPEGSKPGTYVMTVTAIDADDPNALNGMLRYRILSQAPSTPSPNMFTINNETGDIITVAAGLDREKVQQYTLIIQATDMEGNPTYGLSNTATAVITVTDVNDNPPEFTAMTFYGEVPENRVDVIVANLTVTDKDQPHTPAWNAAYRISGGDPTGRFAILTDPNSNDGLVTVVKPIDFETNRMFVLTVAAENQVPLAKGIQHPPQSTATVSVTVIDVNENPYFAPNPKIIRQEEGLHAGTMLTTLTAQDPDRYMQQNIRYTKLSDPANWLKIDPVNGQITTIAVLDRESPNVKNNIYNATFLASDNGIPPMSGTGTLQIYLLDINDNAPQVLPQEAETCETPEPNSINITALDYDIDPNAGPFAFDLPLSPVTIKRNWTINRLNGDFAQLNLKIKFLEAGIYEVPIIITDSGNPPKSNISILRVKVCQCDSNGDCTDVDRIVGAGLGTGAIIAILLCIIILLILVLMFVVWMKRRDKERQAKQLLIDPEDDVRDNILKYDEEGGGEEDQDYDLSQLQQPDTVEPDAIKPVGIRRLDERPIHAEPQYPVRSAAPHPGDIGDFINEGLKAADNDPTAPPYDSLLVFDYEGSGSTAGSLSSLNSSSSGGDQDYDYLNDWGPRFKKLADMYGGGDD
UniProt P23242: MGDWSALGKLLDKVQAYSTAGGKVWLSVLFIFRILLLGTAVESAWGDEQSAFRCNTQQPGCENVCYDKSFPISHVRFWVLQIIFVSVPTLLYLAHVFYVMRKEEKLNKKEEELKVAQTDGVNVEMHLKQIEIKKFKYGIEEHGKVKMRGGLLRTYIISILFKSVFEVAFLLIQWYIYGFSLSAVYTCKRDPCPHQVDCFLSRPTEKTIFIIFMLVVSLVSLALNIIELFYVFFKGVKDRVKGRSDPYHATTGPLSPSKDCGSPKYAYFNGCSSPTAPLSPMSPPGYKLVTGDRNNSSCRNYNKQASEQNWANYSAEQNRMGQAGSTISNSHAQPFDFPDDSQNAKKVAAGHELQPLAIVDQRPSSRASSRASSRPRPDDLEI
UniProt Q8VHX6: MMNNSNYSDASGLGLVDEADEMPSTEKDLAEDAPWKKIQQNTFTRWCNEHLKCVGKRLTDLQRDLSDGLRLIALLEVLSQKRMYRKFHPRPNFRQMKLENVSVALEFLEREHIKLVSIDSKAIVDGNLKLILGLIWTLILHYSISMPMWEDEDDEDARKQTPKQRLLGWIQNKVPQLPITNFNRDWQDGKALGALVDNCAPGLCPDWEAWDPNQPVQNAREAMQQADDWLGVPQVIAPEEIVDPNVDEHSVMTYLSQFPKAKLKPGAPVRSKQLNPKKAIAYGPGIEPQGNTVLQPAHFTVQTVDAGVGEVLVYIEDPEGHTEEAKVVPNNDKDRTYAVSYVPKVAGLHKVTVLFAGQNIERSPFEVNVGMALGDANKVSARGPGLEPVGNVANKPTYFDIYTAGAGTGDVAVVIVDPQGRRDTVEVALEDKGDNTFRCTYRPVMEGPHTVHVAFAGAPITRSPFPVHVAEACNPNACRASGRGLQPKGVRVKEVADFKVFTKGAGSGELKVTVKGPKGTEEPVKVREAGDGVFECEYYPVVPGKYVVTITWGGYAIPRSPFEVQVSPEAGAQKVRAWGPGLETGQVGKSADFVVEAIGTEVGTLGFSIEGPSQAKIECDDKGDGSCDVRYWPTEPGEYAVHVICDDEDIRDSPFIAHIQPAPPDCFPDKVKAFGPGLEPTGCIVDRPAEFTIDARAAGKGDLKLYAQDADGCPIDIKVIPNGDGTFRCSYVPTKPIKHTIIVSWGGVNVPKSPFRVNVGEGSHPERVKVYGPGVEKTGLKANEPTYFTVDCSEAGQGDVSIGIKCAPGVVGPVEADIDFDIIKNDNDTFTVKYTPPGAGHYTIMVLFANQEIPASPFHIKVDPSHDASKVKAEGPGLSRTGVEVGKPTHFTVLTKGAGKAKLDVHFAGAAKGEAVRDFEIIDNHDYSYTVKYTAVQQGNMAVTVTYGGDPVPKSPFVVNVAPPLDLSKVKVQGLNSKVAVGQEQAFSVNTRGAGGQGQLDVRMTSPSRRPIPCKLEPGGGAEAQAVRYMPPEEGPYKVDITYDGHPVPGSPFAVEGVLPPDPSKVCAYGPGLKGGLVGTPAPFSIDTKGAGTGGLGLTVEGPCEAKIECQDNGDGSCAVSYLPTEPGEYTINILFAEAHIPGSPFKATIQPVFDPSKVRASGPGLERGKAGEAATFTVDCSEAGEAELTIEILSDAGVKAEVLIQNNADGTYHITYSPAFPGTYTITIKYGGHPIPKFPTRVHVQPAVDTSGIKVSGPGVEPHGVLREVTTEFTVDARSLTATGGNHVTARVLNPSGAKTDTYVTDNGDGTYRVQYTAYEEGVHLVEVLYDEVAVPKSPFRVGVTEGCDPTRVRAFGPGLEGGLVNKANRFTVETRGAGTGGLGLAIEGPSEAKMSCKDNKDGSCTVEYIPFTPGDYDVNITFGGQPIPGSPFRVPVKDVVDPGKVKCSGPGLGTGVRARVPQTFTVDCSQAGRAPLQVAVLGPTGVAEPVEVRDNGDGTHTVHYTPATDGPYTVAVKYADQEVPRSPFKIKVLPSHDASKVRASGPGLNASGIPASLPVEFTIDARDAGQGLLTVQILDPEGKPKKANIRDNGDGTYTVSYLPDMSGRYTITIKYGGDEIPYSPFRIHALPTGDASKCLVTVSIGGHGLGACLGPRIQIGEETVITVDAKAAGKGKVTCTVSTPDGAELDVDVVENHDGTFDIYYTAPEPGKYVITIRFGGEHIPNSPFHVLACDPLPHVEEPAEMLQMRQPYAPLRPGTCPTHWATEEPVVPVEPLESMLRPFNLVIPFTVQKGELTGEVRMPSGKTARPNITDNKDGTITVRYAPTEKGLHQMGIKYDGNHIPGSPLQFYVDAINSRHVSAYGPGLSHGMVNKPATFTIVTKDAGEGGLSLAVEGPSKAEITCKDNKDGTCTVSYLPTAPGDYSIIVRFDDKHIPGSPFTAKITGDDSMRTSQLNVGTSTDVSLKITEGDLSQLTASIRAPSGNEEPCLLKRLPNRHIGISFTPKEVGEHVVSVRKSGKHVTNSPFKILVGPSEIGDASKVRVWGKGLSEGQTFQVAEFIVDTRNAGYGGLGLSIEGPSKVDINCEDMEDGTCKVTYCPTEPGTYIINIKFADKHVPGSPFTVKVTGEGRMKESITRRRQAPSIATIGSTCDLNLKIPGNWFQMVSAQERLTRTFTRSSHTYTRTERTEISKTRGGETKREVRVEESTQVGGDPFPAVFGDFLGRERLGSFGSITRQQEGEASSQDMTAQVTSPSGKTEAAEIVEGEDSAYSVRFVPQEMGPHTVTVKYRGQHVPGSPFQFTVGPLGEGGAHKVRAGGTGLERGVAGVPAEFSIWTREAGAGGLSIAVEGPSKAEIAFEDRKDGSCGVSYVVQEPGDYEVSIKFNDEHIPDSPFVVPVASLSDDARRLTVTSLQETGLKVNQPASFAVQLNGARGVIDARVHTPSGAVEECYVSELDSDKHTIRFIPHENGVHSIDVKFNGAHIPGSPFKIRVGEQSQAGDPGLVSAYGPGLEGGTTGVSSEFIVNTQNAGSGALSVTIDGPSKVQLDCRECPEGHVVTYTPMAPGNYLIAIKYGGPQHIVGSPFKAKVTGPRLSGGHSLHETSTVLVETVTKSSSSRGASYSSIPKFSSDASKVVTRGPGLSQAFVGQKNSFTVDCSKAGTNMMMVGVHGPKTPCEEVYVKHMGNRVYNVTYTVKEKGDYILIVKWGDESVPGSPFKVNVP

The substances below were run against HSPB7 (mouse (endogenous in mouse heart)) (UniProt P35385) (assay: co-IP; 1 mg total protein of adult HSPB7Flox/Flox mouse heart lysate (Cell Lysis Buffer, protease inhibitors) incubated with anti-FLAG M2 affinity gel at 4°C overnight; beads washed with PBS; western blotting; wild-type heart as negative control).

Question: For “N-cadherin (from UniProt P15116 160-906)”, which binding is on record?
Answer: Its binding is “no binding”.

Question: Which binding does the source give for connexin 43 (from UniProt P23242 1-382) here?
Answer: The binding was “no binding”.

Question: Which binding does the source give for filamin C (from UniProt Q8VHX6 1-2726) here?
Answer: Its binding is “binds”.
